Assay results: PubChem BioAssay AID2685 (National Center for Advancing Translational Sciences (NCATS), 2010)
The other results are listed elsewhere or left out. These are further read-outs of the screen, such as a control signal, another cell line or another target. No call is given for them. Most of these compounds were active or inconclusive in the main read-out, so they are no random draw. Potencies come from curve fits of mixed quality, noted in brackets.

Assay: qHTS Assay for Lipid Storage Modulators in Drosophila S3 Cells;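 as to cell number change: cells counted by Cell Tracker Red CMTPX staining in the red channel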
Details: BODIPY lipid droplet fluorescence, 18-24 h; for cell number change: measured here: cell count max response, cells fed with added oleic acid
Method in brief: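 Drosophila S3 cells loaded with oleic acid (400 uM, as added) and compounds at several concentrations; lipid droplets imaged by 488-nm laser-scanning cytometry, 500–530 nm intensity and object ratio to cell channel. Percent activity normalized to 20 uM Triacsin C.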

[1] = measured here: lipid fluorescence (Fed channel) AC50, cells fed with added oleic acid
[2] = measured here: cell number channel AC50, cells fed with added oleic acid

Row | SMILES | cell number change [%] | AC50 [1] | AC50 [2]
1 | Cc1ccccc1C(=O)NNC(=S)NC(=O)c1cccs1 | -21.4 | 0.58 µM [rising, single point] | –
2 | COc1ccc(S(=O)(=O)/N=C2/NC(=O)/C(=C\c3cc(OC)c(OC)cc3[N+](=O)[O-])S2)cc1 | – | 1.46 µM [falling, partial curve, poor fit] | –
3 | CCN(CC)CCOC(=O)C1(C2CCCCC2)CCCCC1 | 4 | 29.1 µM [falling, single point] | –
4 | CCCCN(CCCC)Cc1ccc(C(=O)NNC(=O)Nc2ccc(Cl)cc2)o1 | -29.4 | 32.6 µM [falling, partial curve, poor fit] | –
5 | CC(NCC1COc2ccccc2O1)C1COc2ccccc2O1 (configuration not stated) | -24.6 | – | –
6 | COc1cc(CNC(=O)CCC(=O)N2C[C@H]3C[C@H](C2)c2cccc(=O)n2C3)cc(OC)c1OC | -6.71 | 0.0651 µM [falling, full curve, poor fit] | –
7 | COc1cc(OC)c(NC(=O)C2CC(=O)N(c3ccc4c(c3)OCCO4)C2)cc1Cl (configuration not stated) | -14.1 | 0.58 µM [rising, single point] | –
8 | Cc1nn(Cc2nc(-c3cccs3)no2)c(C)c1Br | -34.9 | 0.00461 µM [rising, full curve, poor fit] | 20.6 µM [falling, single point]
9 | C=C(C)C1CC=C(C)/C(=N/NC(=O)CNc2ccc(OCC)cc2)C1 (configuration not stated) | -28.7 | – | 4.61 µM [falling, full curve, poor fit]
10 | Cc1ccc(NS(=O)(=O)c2ccc(C)c(NC(=O)COc3ccccc3)c2)c(C)c1 | 31 | 6.51 µM [rising, full curve] | 29.1 µM [rising, single point]
11 | COc1ccc(Oc2cn[nH]c2-c2ccc(O)cc2O)cc1 | -15.4 | 25.9 µM [rising, single point] | –
12 | Nc1nc(Cl)cc(NCCc2ccc(O)cc2)n1 | 26.6 | – | –
13 | CCn1c(CSc2nnc(-c3ccoc3C)n2C)nc2cc(S(=O)(=O)N(C)C)ccc21 | 12 | 6.51 µM [rising, full curve, poor fit] | –
14 | Cc1ccc(CNC(=O)CN2C(=O)NC(C)(c3cccc(Br)c3)C2=O)cc1 (configuration not stated) | 85.6 | 29.1 µM [rising, single point] | 10.3 µM [rising, partial curve]
15 | O=C(c1cnc2sccn2c1=O)N(Cc1ccccc1)c1ccccn1 | 4.38 | 0.0058 µM [falling, full curve, poor fit] | –
16 | O=C1C(CCCNC(=S)NCc2ccccc2)NC(=S)N1Cc1ccccc1 (configuration not stated) | -44.1 | 14.6 µM [falling, partial curve] | 16.4 µM [falling, single point]
17 | Cc1ccc(C(=O)Nc2ccccc2N2CCN(C(=O)C(C)C)CC2)cc1 | 6.19 | 2.06 µM [falling, partial curve] | –
18 | Cc1ccccc1-n1nc(CSc2nc3ccccc3[nH]2)c(-c2ccccc2)c1N | -19.2 | 23.1 µM [falling, single point] | –
19 | Cn1ncc([N+](=O)[O-])c1C(=O)Nc1cccc2ccccc12 | 11.7 | 29.1 µM [falling, partial curve] | –
20 | CCOC(=O)c1cc2sccc2n1CC(=O)OC | 6.42 | 16.4 µM [rising, single point] | –
21 | CCOc1ccc(CCNC(=O)c2cn(C)c3ccc(S(=O)(=O)N4CCOCC4)cc3c2=O)cc1OCC | -5.19 | – | –
22 | COc1ccccc1-n1c(SCC(=O)NCC2CCCO2)nc2c([nH]c3ccccc32)c1=O (configuration not stated) | 37.1 | 29.1 µM [rising, single point] | 18.4 µM [rising, single point]
23 | Cc1cnc(C(=O)OCC(=O)C23CC4CC(CC(C4)C2)C3)cn1 | -4.42 | – | –
24 | C=CCN(CC=C)S(=O)(=O)c1ccc(NC(=S)NC(=O)c2ccco2)cc1 | -1.84 | – | –
25 | Cn1c(=O)c(C#N)c(-c2ccccc2)n2cnnc12 | -70.6 | – | 32.6 µM [falling, single point]
26 | CN(C)CCN(C(=O)c1ccc(Br)s1)c1nc2cc3c(cc2s1)OCCO3 | – | 6.51 µM [falling, single point] | –
27 | CC(C)(C)NC(=O)COc1coc(CN2CCN(C(=O)c3ccco3)CC2)cc1=O | -1.98 | 0.164 µM [rising, full curve, poor fit] | –
28 | NC(=O)Nc1ccc(Oc2c(F)c(F)c(F)c(F)c2F)cc1 | -1.33 | – | –
29 | Cc1ccc(S(=O)(=O)N(CC(=O)NCc2ccco2)C2CCCCC2)cc1 | -24.4 | – | –
30 | S=C(NCc1ccc2[nH]c3c(c2c1)CCCC3)Nc1ccccc1Cl | -43.6 | 20.6 µM [falling, single point] | 29.1 µM [falling, single point]

Given tab-delimited: part of the list above
Row	SMILES	cell number change [%]	AC50 [1]	AC50 [2]
26	CN(C)CCN(C(=O)c1ccc(Br)s1)c1nc2cc3c(cc2s1)OCCO3	–	6.51 µM [falling, single point]	–
27	CC(C)(C)NC(=O)COc1coc(CN2CCN(C(=O)c3ccco3)CC2)cc1=O	-1.98	0.164 µM [rising, full curve, poor fit]	–
